Data as given in the supplement of paper PMC8728848.
The other results are listed elsewhere or left out.

Assays:
Experiment in all cases: glycan array binding signal (z-score within array); higher = stronger binding
Conditions in all cases: glycan notation: IUPAC condensed, linker removed
[1] = target: Fuc(a1-2)[GalNAc(a1-4)]Gal(b1-4)GlcNAc
Procedure, shortened: (§1)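 Columns mapping to the same glycan were averaged after glycan names were converted to IUPAC-condensed notation. The data come from 3228 arrays in the Consortium for Functional Glycomics database, limited to those with an available protein sequence. Binding is reported as a within-array Z-score averaged across arrays of one protein sequence and across linkers.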

[2] = target: Fuc(a1-2)[GalNAc(b1-3)]Gal
Procedure, shortened: as §1

Fuc(a1-3)GlcNAc = target: Fuc(a1-3)GlcNAc
Procedure, shortened: as §1

[3] = target: Fuc(a1-3)[Gal(b1-4)]Glc6S
Procedure, shortened: as §1

[4] = target: Fuc(a1-3)[Gal(b1-4)]GlcNAc
Procedure, shortened: as §1

[5] = target: Fuc(a1-3)[Gal(b1-4)]GlcNAc(b1-2)Man
Procedure, shortened: as §1

[6] = target: Fuc(a1-3)[Gal(b1-4)]GlcNAc(b1-2)Man(a1-3)[Fuc(a1-3)[Gal(b1-4)]GlcNAc(b1-2)Man(a1-6)]Man(b1-4)GlcNAc(b1-4)GlcNAc
Procedure, shortened: as §1

[7] = target: Fuc(a1-3)[Gal(b1-4)]GlcNAc(b1-2)Man(a1-3)[Fuc(a1-3)[Gal(b1-4)]GlcNAc(b1-2)Man(a1-6)]Man(b1-4)GlcNAc(b1-4)[Fuc(a1-6)]GlcNAc
Procedure, shortened: as §1

[8] = target: Fuc(a1-3)[Gal(b1-4)]GlcNAc(b1-3)Gal(b1-3)[Fuc(a1-4)]GlcNAc
Procedure, shortened: as §1

[9] = target: Fuc(a1-3)[Gal(b1-4)]GlcNAc(b1-3)Gal(b1-4)[Fuc(a1-3)]GlcNAc
Procedure, shortened: as §1

[10] = target: Fuc(a1-3)[Gal(b1-4)]GlcNAc(b1-3)Gal(b1-4)[Fuc(a1-3)]GlcNAc(b1-3)Gal(b1-4)[Fuc(a1-3)]GlcNAc
Procedure, shortened: as §1

[11] = target: Fuc(a1-3)[Gal(b1-4)]GlcNAc(b1-3)GalNAc
Procedure, shortened: as §1

[12] = target: Fuc(a1-3)[Gal(b1-4)]GlcNAc(b1-4)Gal(b1-4)[Fuc(a1-3)]GlcNAc
Procedure, shortened: as §1

[13] = target: Fuc(a1-3)[Gal(b1-4)]GlcNAc(b1-4)Gal(b1-4)[Fuc(a1-3)]GlcNAc(b1-4)Gal(b1-4)[Fuc(a1-3)]GlcNAc
Procedure, shortened: as §1

[14] = target: Fuc(a1-3)[Gal(b1-4)]GlcNAc(b1-6)GalNAc
Procedure, shortened: as §1

[15] = target: Fuc(a1-3)[Gal(b1-4)]GlcNAc(b1-6)[Gal(b1-3)GlcNAc(b1-3)]Gal(b1-4)Glc
Procedure, shortened: as §1

[16] = target: Fuc(a1-3)[Gal(b1-4)]GlcNAc6S
Procedure, shortened: as §1

[17] = target: Fuc(a1-3)[Gal3S(b1-4)]Glc
Procedure, shortened: as §1

[18] = target: Fuc(a1-3)[Gal3S(b1-4)]GlcNAc
Procedure, shortened: as §1

[19] = target: Fuc(a1-3)[Gal3S(b1-4)]GlcNAc6S
Procedure, shortened: as §1

[20] = target: Fuc(a1-3)[GalNAc(b1-4)]GlcNAc
Procedure, shortened: as §1

[21] = target: Fuc(a1-3)[GalNAc(b1-4)]GlcNAc6S
Procedure, shortened: as §1

Fuc(a1-4)GlcNAc = target: Fuc(a1-4)GlcNAc
Procedure, shortened: as §1

Fuc(b1-3)GlcNAc = target: Fuc(b1-3)GlcNAc
Procedure, shortened: as §1

Gal(a1-2)Gal = target: Gal(a1-2)Gal
Procedure, shortened: as §1

Gal(a1-3)Gal = target: Gal(a1-3)Gal
Procedure, shortened: as §1

Gal(a1-3)Gal(b1-3)GlcNAc = target: Gal(a1-3)Gal(b1-3)GlcNAc
Procedure, shortened: as §1

[22] = target: Gal(a1-3)Gal(b1-3)GlcNAc(b1-2)Man
Procedure, shortened: as §1

[23] = target: Gal(a1-3)Gal(b1-3)GlcNAc(b1-2)Man(a1-3)[Gal(a1-3)Gal(b1-3)GlcNAc(b1-2)Man(a1-6)]Man(b1-4)GlcNAc(b1-4)GlcNAc
Procedure, shortened: as §1

[24] = target: Gal(a1-3)Gal(b1-3)GlcNAc(b1-3)GalNAc
Procedure, shortened: as §1

B1: Endo180d1-D4 (Homo sapiens), Q9UBG0 (protein)
chain: MGPGRPAPAPWPRHLLRCVLLLGCLHLGRPGAPGDAALPEPNVFLIFSHGLQGCLEAQGGQVRVTPACNTSLPAQRWKWVSRNRLFNLGTMQCLGTGWPGTNTTASLGMYECDREALNLRWHCRTLGDQLSLLLGARTSNISKPGTLERGDQTRSGQWRIYGSEEDLCALPYHEVYTIQGNSHGKPCTIPFKYDNQWFHGCTSTGREDGHLWCATTQDYGKDERWGFCPIKSNDCETFWDKDQLTDSCYQFNFQSTLSWREAWASCEQQGADLLSITEIHEQTYINGLLTGYSSTLWIGLNDLDTSGGWQWSDNSPLKYLNWESDQPDNPSEENCGVIRTESSGGWQNRDCSIALPYVCKKKPNATAEPTPPDRWANVKVECEPSWQPFQGHCYRLQAEKRSWQESKKACLRGGGDLVSIHSMAELEFITKQIKQEVEELWIGLNDLKLQMNFEWSDGSLVSFTHWHPFEPNNFRDSLEDCVTIWGPEGRWNDSPCNQSLPSICKKAGQLSQGAAEEDHGCRKGWTWHSPSCYWLGEDQVTYSEARRLCTDHGSQLVTITNRFEQAFVSSLIYNWEGEYFWTALQDLNSTGSFFWLSGDEVMYTHWNRDQPGYSRGGCVALATGSAMGLWEVKNCTSFRARYICRQSLGTPVTPELPGPDPTPSLTGSCPQGWASDTKLRYCYKVFSSERLQDKKSWVQAQGACQELGAQLLSLASYEEEHFVANMLNKIFGESEPEIHEQHWFWIGLNRRDPRGGQSWRWSDGVGFSYHNFDRSRHDDDDIRGCAVLDLASLQWVAMQCDTQLDWICKIPRGTDVREPDDSPQGRREWLRFQEAEYKFFEHHSTWAQAQRICTWFQAELTSVHSQAELDFLSHNLQKFSRAQEQHWWIGLHTSESDGRFRWTDGSIINFISWAPGKPRPVGKDKKCVYMTASREDWGDQRCLTALPYICKRSNVTKETQPPDLPTTALGGCPSDWIQFLNKCFQVQGQEPQSRVKWSEAQFSCEQQEAQLVTITNPLEQAFITASLPNVTFDLWIGLHASQRDFQWVEQEPLMYANWAPGEPSGPSPAPSGNKPTSCAVVLHSPSAHFTGRWDDRSCTEETHGFICQKGTDPSLSPSPAALPPAPGTELSYLNGTFRLLQKPLRWHDALLLCESHNASLAYVPDPYTQAFLTQAARGLRTPLWIGLAGEEGSRRYSWVSEEPLNYVGWQDGEPQQPGGCTYVDVDGAWRTTSCDTKLQGAVCGVSSGPPPPRRISYHGSCPQGLADSAWIPFREHCYSFHMELLLGHKEARQRCQRAGGAVLSILDEMENVFVWEHLQSYEGQSRGAWLGMNFNPKGGTLVWQDNTAVNYSNWGPPGLGPSMLSHNSCYWIQSNSGLWRPGACTNITMGVVCKLPRAEQSSFSPSALPENPAALVVVLMAVLLLLALLTAALILYRRRQSIERGAFEGARYSRSSSSPTEATEKNILVSDMEMNEQQE
[1]
  glycan array binding signal (z-score): 0.451
[2]
  glycan array binding signal (z-score): 0.61
Fuc(a1-3)GlcNAc
  glycan array binding signal (z-score): 0.335
[3]
  glycan array binding signal (z-score): 0.331
[4]
  glycan array binding signal (z-score): -0.373
[5]
  glycan array binding signal (z-score): -1.59
[6]
  glycan array binding signal (z-score): -0.277
[7]
  glycan array binding signal (z-score): 1.1
[8]
  glycan array binding signal (z-score): 0.241
[9]
  glycan array binding signal (z-score): 0.229
[10]
  glycan array binding signal (z-score): 0.366
[11]
  glycan array binding signal (z-score): 0.291
[12]
  glycan array binding signal (z-score): -0.291
[13]
  glycan array binding signal (z-score): -0.146
[14]
  glycan array binding signal (z-score): -0.85
[15]
  glycan array binding signal (z-score): -0.571
[16]
  glycan array binding signal (z-score): -0.08
[17]
  glycan array binding signal (z-score): 0.053
[18]
  glycan array binding signal (z-score): -0.348
[19]
  glycan array binding signal (z-score): 0.23
[20]
  glycan array binding signal (z-score): 0.1
[21]
  glycan array binding signal (z-score): -0.564
Fuc(a1-4)GlcNAc
  glycan array binding signal (z-score): -0.559
Fuc(b1-3)GlcNAc
  glycan array binding signal (z-score): -0.204
Gal(a1-2)Gal
  glycan array binding signal (z-score): -0.141
Gal(a1-3)Gal
  glycan array binding signal (z-score): -0.012
Gal(a1-3)Gal(b1-3)GlcNAc
  glycan array binding signal (z-score): -0.062
[22]
  glycan array binding signal (z-score): 0.453
[23]
  glycan array binding signal (z-score): 0.858
[24]
  glycan array binding signal (z-score): 0.03
